PubChem BioAssay AID1259308 | NCATS, 2017
In all, the deposit lists about 59,000 reagents; below is an unselected part. Over the whole deposit, about 1,510 (2.6%) got an active call. 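Calls use total luciferase alone and ignore viability, so some active siRNAs may act by altering cell number.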 The numbers tell different reagents against one gene apart. Further read-outs or replicates are left out here.

Purpose: 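Knock-downs that increase output of a recombinant reporter protein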 (primary screen)
System: human HEK293 embryonic kidney cells stably expressing firefly luciferase (HEK-CMV-Luc2-Hygro)
Knock-down reagent: single siRNA against human genes, 0.8 pmol siRNA per well
Timing: 72 h
Measurement: 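Luciferase light (ONE-Glo) measured on one replicate plate set and viability (CellTiter-Glo) on the other, scaled to a negative control siRNA, with robust z-scores and luciferase per cell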
Scale: total luciferase, z-score and total luciferase, % of control: higher = more reporter protein produced; luciferase per cell, z-score: higher = more reporter output per viable cell
Call rule: 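Active when the median/MAD z-score for overall luciferase is greater than 3; a gene was taken forward for validation with new siRNAs if at least two of its three siRNAs passed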
Calls: active = raised luciferase; inactive = no rise

gene | siRNA no. | total luciferase, z-score | total luciferase, % of control | luciferase per cell, z-score | call
TOPORS | 1 | 0.408 | 90 | -0.0676 | inactive
TOPORS | 2 | -0.808 | 65.8 | -0.784 | inactive
TOPORS | 3 | 0.532 | 92.5 | 0.364 | inactive
GFRA4 (GDNF family receptor alpha 4) | 1 | -1.18 | 58.4 | -1 | inactive
GFRA4 (GDNF family receptor alpha 4) | 2 | -0.797 | 66 | 0.0101 | inactive
GFRA4 (GDNF family receptor alpha 4) | 3 | 4.91 | 180 | 2.63 | active
HTN1 (histatin 1) | 1 | 1 | 102 | 0.317 | inactive
HTN1 (histatin 1) | 2 | 0.0694 | 83.3 | -0.0168 | inactive
HTN1 (histatin 1) | 3 | -1.42 | 53.7 | -1.22 | inactive
URI1 (URI1 prefoldin like chaperone) | 1 | -0.706 | 67.9 | -0.597 | inactive
URI1 (URI1 prefoldin like chaperone) | 2 | -1.05 | 61 | -1.1 | inactive
URI1 (URI1 prefoldin like chaperone) | 3 | -0.0799 | 80.3 | -0.395 | inactive
GIMAP6 (GTPase, IMAP family member 6) | 1 | 1.1 | 104 | 1.71 | inactive
GIMAP6 (GTPase, IMAP family member 6) | 2 | 0.0236 | 82.4 | 0.119 | inactive
GIMAP6 (GTPase, IMAP family member 6) | 3 | -1.92 | 43.8 | -1.94 | inactive
SLC30A8 | 1 | 1.21 | 106 | 1.77 | inactive
SLC30A8 | 2 | -0.883 | 64.3 | -0.0384 | inactive
SLC30A8 | 3 | -1.66 | 48.8 | -2.28 | inactive
UBE2L6 (ubiquitin conjugating enzyme E2 L6) | 1 | -0.253 | 76.9 | 0.639 | inactive
UBE2L6 (ubiquitin conjugating enzyme E2 L6) | 2 | 1.32 | 108 | 0.869 | inactive
UBE2L6 (ubiquitin conjugating enzyme E2 L6) | 3 | -2.32 | 35.8 | -1.94 | inactive
TBCA (tubulin folding cofactor A) | 1 | 1.56 | 113 | 1.65 | inactive
TBCA (tubulin folding cofactor A) | 2 | -0.168 | 78.6 | -0.0672 | inactive
TBCA (tubulin folding cofactor A) | 3 | 0.891 | 99.6 | 0.321 | inactive
TMEM11 (transmembrane protein 11) | 1 | -1.77 | 46.7 | -1.36 | inactive
TMEM11 (transmembrane protein 11) | 2 | 0.124 | 84.4 | 0.197 | inactive
TMEM11 (transmembrane protein 11) | 3 | 0.958 | 101 | 0.585 | inactive
CRIP2 (cysteine rich protein 2) | 1 | -0.453 | 72.9 | -0.137 | inactive
CRIP2 (cysteine rich protein 2) | 2 | -0.381 | 74.3 | -0.34 | inactive
CRIP2 (cysteine rich protein 2) | 3 | -0.378 | 74.4 | -0.924 | inactive
NDUFAF5 (NADH:ubiquinone oxidoreductase complex assembly factor 5) | 1 | 0.365 | 89.1 | -0.671 | inactive
NDUFAF5 (NADH:ubiquinone oxidoreductase complex assembly factor 5) | 2 | 1.23 | 106 | 0.595 | inactive
NDUFAF5 (NADH:ubiquinone oxidoreductase complex assembly factor 5) | 3 | -0.0498 | 80.9 | -0.835 | inactive
FAT4 (FAT atypical cadherin 4) | 1 | 0.419 | 90.2 | -0.875 | inactive
FAT4 (FAT atypical cadherin 4) | 2 | -0.23 | 77.3 | -0.216 | inactive
FAT4 (FAT atypical cadherin 4) | 3 | 0.447 | 90.8 | 0.15 | inactive
LINC01625 (long independently transcribed non-coding RNA 1625) | 1 | 1.05 | 103 | 0.502 | inactive
LINC01625 (long independently transcribed non-coding RNA 1625) | 2 | -0.171 | 78.5 | -0.377 | inactive
LINC01625 (long independently transcribed non-coding RNA 1625) | 3 | 1.33 | 108 | 1.5 | inactive
RNF34 (ring finger protein 34) | 1 | 0.111 | 84.1 | -0.109 | inactive
RNF34 (ring finger protein 34) | 2 | 1.62 | 114 | 1.37 | inactive
RNF34 (ring finger protein 34) | 3 | 0.307 | 88 | -0.408 | inactive
TFB1M (transcription factor B1, mitochondrial) | 1 | 2.42 | 130 | 2.07 | inactive
TFB1M (transcription factor B1, mitochondrial) | 2 | -1.42 | 53.7 | -0.787 | inactive
TFB1M (transcription factor B1, mitochondrial) | 3 | -0.905 | 63.9 | -1.54 | inactive
CST5 (cystatin D) | 1 | 0.128 | 84.4 | -0.48 | inactive
CST5 (cystatin D) | 2 | 0.186 | 85.6 | -0.345 | inactive
CST5 (cystatin D) | 3 | 0.118 | 84.2 | -0.443 | inactive
ACOD1 (aconitate decarboxylase 1) | 1 | -2.72 | 27.7 | -2.55 | inactive
ACOD1 (aconitate decarboxylase 1) | 2 | -0.357 | 74.8 | -0.815 | inactive
ACOD1 (aconitate decarboxylase 1) | 3 | 1.12 | 104 | 0.662 | inactive
CEP104 (centrosomal protein 104) | 1 | -0.457 | 72.8 | -0.644 | inactive
CEP104 (centrosomal protein 104) | 2 | 0.321 | 88.3 | 0.161 | inactive
CEP104 (centrosomal protein 104) | 3 | 0.373 | 89.3 | -0.557 | inactive
MTHFD2 | 1 | -0.701 | 67.9 | -1.22 | inactive
MTHFD2 | 2 | 0.266 | 87.2 | -0.0153 | inactive
MTHFD2 | 3 | 0.00385 | 82 | -0.677 | inactive
ITGA2 (integrin subunit alpha 2) | 1 | -0.397 | 74 | -0.917 | inactive
ITGA2 (integrin subunit alpha 2) | 2 | 0.517 | 92.2 | 0.135 | inactive
ITGA2 (integrin subunit alpha 2) | 3 | 3.66 | 155 | 2.67 | active
WDR38 (WD repeat domain 38) | 1 | -0.42 | 73.5 | -0.055 | inactive
WDR38 (WD repeat domain 38) | 2 | -0.833 | 65.3 | -0.577 | inactive
WDR38 (WD repeat domain 38) | 3 | -0.103 | 79.8 | 1.36 | inactive
CCDC59 (coiled-coil domain containing 59) | 1 | -0.913 | 63.7 | -1.78 | inactive
CCDC59 (coiled-coil domain containing 59) | 2 | -0.106 | 79.8 | -0.0913 | inactive
CCDC59 (coiled-coil domain containing 59) | 3 | -0.0178 | 81.5 | -0.0335 | inactive
RELL1 (RELT like 1) | 1 | 0.288 | 87.6 | 0.586 | inactive
RELL1 (RELT like 1) | 2 | -0.925 | 63.5 | 1.67 | inactive
RELL1 (RELT like 1) | 3 | -0.0569 | 80.8 | -0.0778 | inactive
TTC23L (tetratricopeptide repeat domain 23 like) | 1 | -0.344 | 75 | -0.665 | inactive
TTC23L (tetratricopeptide repeat domain 23 like) | 2 | 0.664 | 95.1 | 0.24 | inactive
TTC23L (tetratricopeptide repeat domain 23 like) | 3 | -0.488 | 72.2 | -0.298 | inactive
ZNF628 (zinc finger protein 628) | 1 | 0.654 | 94.9 | 0.462 | inactive
ZNF628 (zinc finger protein 628) | 2 | 1.21 | 106 | 0.071 | inactive
ZNF628 (zinc finger protein 628) | 3 | 2 | 122 | 2.03 | inactive

Hits, among the entries above:
gene | siRNA no. | total luciferase, z-score | total luciferase, % of control | luciferase per cell, z-score | call
GFRA4 (GDNF family receptor alpha 4) | 3 | 4.91 | 180 | 2.63 | active
ITGA2 (integrin subunit alpha 2) | 3 | 3.66 | 155 | 2.67 | active
